Among all 320,000 compounds or so, about 22,000 (6.9%) were called active. This list was built around the results that the source calls inconclusive (neither active nor inactive); the mix of calls is not that of the screen. Calls follow the shape of the dose curve; as a rule, active = well fitted inhibition curve with a large enough effect; inconclusive = small, poorly fitted or top-dose-only effect, or another doubt; inactive = no such curve, though single readings can be large or run the other way. Potencies beside an inconclusive call are fits to weak or partial responses and may not hold up.
Test: Primary qHTS for delayed death inhibitors of the malarial parasite plastid, 96 hour incubation
Details: P. falciparum luciferase reporter growth; series mostly up to 28.7 µM; activity change, negative = inhibition: at the top concentration
In short: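 Readout is luminescence from an integrated firefly luciferase in P. falciparum. Red cells, 2% hematocrit and 0.05% parasitemia final, were cultured with compound through two parasite generations (96 hours) at 37 C, 5% CO2.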
% is scaled to controls: 0 for no effect and ±100 for the full control effect; potency is read from the fitted curve at half-maximal effect.

SMILES	activity change, negative = inhibition	Potency
CC1(C)NC(=O)N(CC(O)CN(c2cccc([N+](=O)[O-])c2)S(=O)(=O)c2ccccc2)C1=O (stereo unspecified)	inactive: -29.6%	–
Cc1ccccc1CC1SC(N=C(N)N)=NC1=O (stereo unspecified)	–	inconclusive: 18.5 µM [inhibitor, single point]
COc1cccc(C2=Nc3cccc4cccc(c34)N2)c1	–	inconclusive: 11.7 µM [inhibitor, single point]
Cc1sc2ncnc(N3CCC(C(=O)Nc4sc5c(c4C(N)=O)CCC(C)C5)CC3)c2c1C (stereo unspecified)	inactive: -10.8%	–
Cc1ccc(NS(=O)(=O)c2cccc(C(=O)NCC3CCCO3)c2)cc1 (stereo unspecified)	inactive: -4.78%	–
CSc1cccc(CNC(=O)C2CCC(=O)N(Cc3cccc(C(F)(F)F)c3)C2)c1 (stereo unspecified)	inactive: -5.47%	–
CCCCN(C)C(=O)CC(NS(=O)(=O)c1ccc(NC(C)=O)cc1)C(C)C (stereo unspecified)	–	inconclusive: 3.29 µM [inhibitor, full curve, poor fit]
CCCNC(=O)OC[C@H]1O[C@H](CCO/N=C/[C@@H](OC)[C@H](C)/C=C/CC(=O)OC)C=C[C@@H]1Oc1ccc(OC)cc1	–	inconclusive: 18.5 µM [inhibitor, single point]
O=C(NCc1ccccc1)c1cccc(COc2cc(Cl)ccc2Cl)c1	–	inconclusive: 2.33 µM [inhibitor, full curve, poor fit]
CCOC(=O)C1=C(CN2CCN(CCC#N)CC2)NC(=O)NC1c1ccc2c(c1)OCO2 (stereo unspecified)	inactive: 12.6%	–
N/C(=N\c1nc2c(c(=O)[nH]1)CCCC2)Nc1ccccc1Sc1ccccc1	–	inconclusive: 18.5 µM [inhibitor, single point]
O=C(O)c1cn(-c2ccccc2)nc1C(=O)O	inactive: -18%	–
Cn1c(-c2ccc(Cl)nc2)nc2ccccc21	inactive: 64.9%	–
CCC1CCCCN1C(=O)CCNC(=O)Cn1cnc2ccccc2c1=O (stereo unspecified)	inactive: 22.6%	–
CCOCCCn1c(C)nc2c[n+](CC(=O)c3ccc4ccccc4c3)cc(Br)c21	–	inconclusive: 2.08 µM [inhibitor, full curve]
CS(=O)(=O)N1CCCC(C(=O)Nc2ccc3c(c2)OCCO3)C1 (stereo unspecified)	inactive: 17.8%	–
Cc1ccc(S(=O)(=O)c2c(N)n(/N=C/c3ccco3)c3nc4ccccc4nc23)cc1C	–	active: 3.29 µM
CCOc1ccc(OCC)c(NC(=O)CN2CCN(CC)CC2)c1	inactive: -14.3%	–
O=C(COc1ccc(C(=S)N2CCCC2)cc1)Nc1ccc(F)cc1	–	active: 10.4 µM
CC/C(C)=N/Nc1nc2c(c(=O)[nH]c(=O)n2C)n1Cc1ccccc1	–	inconclusive: 5.86 µM [inhibitor, partial curve]
Cc1ccc2[nH]c(C(=O)N/N=C/c3ccc([N+](=O)[O-])cc3)c(C)c2c1	inactive: 13.9%	–
Cc1cc(C(=O)COC(=O)COc2ccc(C#N)cc2)c(C)n1C1CC1	inactive: 30.3%	–
CCC(=O)c1ccc(OCC(=O)OCC(=O)NCCCc2ccccc2)cc1	–	inconclusive: 18.5 µM [inhibitor, single point]

Given with bars between the fields: two of the compounds above
SMILES | activity change, negative = inhibition | Potency
O=C(NCc1ccccc1)c1cccc(COc2cc(Cl)ccc2Cl)c1 | – | inconclusive: 2.33 µM [inhibitor, full curve, poor fit]
CCOC(=O)C1=C(CN2CCN(CCC#N)CC2)NC(=O)NC1c1ccc2c(c1)OCO2 (stereo unspecified) | inactive: 12.6% | –

Additional results follow:

SMILES	activity change, negative = inhibition	Potency
Cc1nc(Nc2ccccc2)sc1C(=O)Nc1ccccc1	–	inconclusive: 18.5 µM [inhibitor, single point]
CCOC(=O)c1ccccc1NC(=O)c1cc2sccc2n1C	–	inconclusive: 18.5 µM [inhibitor, single point]
CC(C)(C)c1ccc(OCC(=O)Nc2ccncc2)c(Br)c1	–	inconclusive: 0.0828 µM [inhibitor, full curve, poor fit]
COc1cccc(CNCc2ccccc2Br)c1OC	–	active: 9.28 µM
Cc1cccc(NC(=S)NC(=O)/C=C/c2ccco2)c1	inactive: 13.7%	–
O=C(O)c1ccn(CSc2cc(Cl)ccc2Cl)n1	–	inconclusive: 0.415 µM [inhibitor, partial curve, poor fit]
CC(=O)Nc1ccc(-c2csc(N/N=C\c3ccncc3)n2)cc1	–	inconclusive: 8.28 µM [inhibitor, partial curve, poor fit]
CCc1cccc2c(C(=O)CN3C(=O)NC4(CCCCCC4)C3=O)c[nH]c12	–	inconclusive: 10.4 µM [inhibitor, partial curve, poor fit]
CCC(C)Nc1nc2c(c(=O)n(C)c(=O)n2C)n1Cc1cccc(C)c1 (stereo unspecified)	inactive: 73.6%	–
CN1CC(=O)NC1=NC(=O)C12CC3CC(CC(C3)C1)C2	–	active: 11.7 µM
CCOc1ccccc1NC(=O)COc1coc(CN2CCc3ccccc32)cc1=O	–	inconclusive: 2.62 µM [inhibitor, full curve]
CN1CCN(c2ncnc3c2cnn3C)CC1	inactive: 32.2%	–
CCN(/N=C/c1ccc(Cl)cc1)c1cc(=O)n(C)c(=O)[nH]1	–	inconclusive: 11.7 µM [inhibitor, single point]
CC1CCC(NC(=O)c2cc(C3CC3)nn2-c2ccccc2)CC1 (stereo unspecified)	–	inconclusive: 18.5 µM [inhibitor, single point]
COc1cccc(C2=NN(C(=O)CCCC(=O)O)C(c3cccs3)C2)c1 (stereo unspecified)	inactive: -8.98%	–
Cc1ccc(S(=O)(=O)N(C)c2ccc(OCC(=O)N3CCCC(C(F)(F)F)C3)cc2)cc1 (stereo unspecified)	–	inconclusive: 13.1 µM [inhibitor, single point]
CCOC(=O)C1=C(C)NC(SCC(=O)Nc2nc(C)cs2)=C(C#N)C1c1cccs1 (stereo unspecified)	–	inconclusive: 11.7 µM [inhibitor, partial curve, poor fit]
COc1ccc(N(CC(=O)O)S(=O)(=O)c2ccc(OC)c(OC)c2)cc1	–	inconclusive: 9.28 µM [inhibitor, partial curve, poor fit]
ON(Cc1c(F)cccc1Cl)Cc1c(F)cccc1Cl	inactive: 17.5%	–
COc1nnc(-c2ccc(N3CCOCC3)c(NC(=O)c3ccco3)c2)c2ccccc12	inactive: 13%	–
CCN1CCN(c2cc(C)c3cc(NC(=S)N4CC(C)CC(C)C4)ccc3n2)CC1 (stereo unspecified)	–	inconclusive: 5.86 µM [inhibitor, partial curve, poor fit]
Cc1[nH]c(=O)[nH]c(=O)c1S(=O)(=O)N1CCCC(C(=O)NCc2ccc3c(c2)OCO3)C1 (stereo unspecified)	–	inconclusive: 2.94 µM [inhibitor, single point]
COc1ccc(C2=CC(=O)C[C@H](c3ccc(Cl)cc3)C2)cn1	–	inconclusive: 16.5 µM [inhibitor, single point]

Source: PubChem BioAssay AID504834 (National Center for Advancing Translational Sciences (NCATS), 2011)
